PubChem BioAssay AID1224830 | NIAID, 2016
The deposit covers about 18,000 reagents; shown is a random part of them. Of all reagents, about 2,900 (16%) are marked active. 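Calls are made per well; low scores hint the gene aids the LPS response, high scores that it dampens it.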 A number with no mark means an inactive call. Repeated entries: four replicate wells of each siRNA pool. Reagent sequences are not shown.

Assay: 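Genes whose knock-down alters the TNF-alpha reporter response to LPS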 (primary screen)
Cells: human THP-1 monocytic leukaemia cells, TNF dual-luciferase reporter clone, PMA-differentiated to macrophage-like cells
Knock-down reagent: siRNA pool against human genes, 50 nM
Duration: LPS for 4 h, given about 3 days after siRNA transfection
Challenge: bacterial LPS (TLR4 ligand), 10 ng/ml
Measurement: 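TNF firefly reporter luminescence divided by renilla, normalised to the plate median, then turned into a robust z-score for each replicate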
Direction: TNF reporter robust z-score: higher = stronger TNF reporter response to LPS
Hit rule: 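a well is active when its z-score exceeds 2.8 or falls below -1.5; control wells carry no call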

NR5A2 (nuclear receptor subfamily 5 group A member 2): TNF reporter robust z-score = -0.71
NR5A2 (nuclear receptor subfamily 5 group A member 2): TNF reporter robust z-score = -0.65
NR5A2 (nuclear receptor subfamily 5 group A member 2): TNF reporter robust z-score = -0.7
NR5A2 (nuclear receptor subfamily 5 group A member 2): TNF reporter robust z-score = 0.45
HSPA1L (heat shock protein family A (Hsp70) member 1 like): TNF reporter robust z-score = 0.1
HSPA1L (heat shock protein family A (Hsp70) member 1 like): TNF reporter robust z-score = -0.25
HSPA1L (heat shock protein family A (Hsp70) member 1 like): TNF reporter robust z-score = -0.7
HSPA1L (heat shock protein family A (Hsp70) member 1 like): TNF reporter robust z-score = 0.54
ZNF112 (zinc finger protein 112): TNF reporter robust z-score = -0.25
ZNF112 (zinc finger protein 112): TNF reporter robust z-score = 0.19
ZNF112 (zinc finger protein 112): TNF reporter robust z-score = -0.11
ZNF112 (zinc finger protein 112): TNF reporter robust z-score = -0.62
ARID1B (AT-rich interaction domain 1B): TNF reporter robust z-score = -1.53 (active)
ARID1B (AT-rich interaction domain 1B): TNF reporter robust z-score = -1.93 (active)
ARID1B (AT-rich interaction domain 1B): TNF reporter robust z-score = -1.83 (active)
ARID1B (AT-rich interaction domain 1B): TNF reporter robust z-score = -1.84 (active)
VWA5B1 (von Willebrand factor A domain containing 5B1): TNF reporter robust z-score = 0.36
VWA5B1 (von Willebrand factor A domain containing 5B1): TNF reporter robust z-score = 0.8
VWA5B1 (von Willebrand factor A domain containing 5B1): TNF reporter robust z-score = 0.32
VWA5B1 (von Willebrand factor A domain containing 5B1): TNF reporter robust z-score = 1.7
CCNT2 (cyclin T2): TNF reporter robust z-score = 0.09
CCNT2 (cyclin T2): TNF reporter robust z-score = -0.74
CCNT2 (cyclin T2): TNF reporter robust z-score = -0.24
CCNT2 (cyclin T2): TNF reporter robust z-score = -0.41
AACS (acetoacetyl-CoA synthetase): TNF reporter robust z-score = -1.05
AACS (acetoacetyl-CoA synthetase): TNF reporter robust z-score = -0.14
AACS (acetoacetyl-CoA synthetase): TNF reporter robust z-score = -0.35
AACS (acetoacetyl-CoA synthetase): TNF reporter robust z-score = 0
UNG (uracil DNA glycosylase): TNF reporter robust z-score = -0.34
UNG (uracil DNA glycosylase): TNF reporter robust z-score = -0.07
UNG (uracil DNA glycosylase): TNF reporter robust z-score = 0.3
UNG (uracil DNA glycosylase): TNF reporter robust z-score = 0.92

The list goes on, starting with the last 6 of the part before.
AACS (acetoacetyl-CoA synthetase): TNF reporter robust z-score = -0.35
AACS (acetoacetyl-CoA synthetase): TNF reporter robust z-score = 0
UNG (uracil DNA glycosylase): TNF reporter robust z-score = -0.34
UNG (uracil DNA glycosylase): TNF reporter robust z-score = -0.07
UNG (uracil DNA glycosylase): TNF reporter robust z-score = 0.3
UNG (uracil DNA glycosylase): TNF reporter robust z-score = 0.92
SLC10A2: TNF reporter robust z-score = -1.5
SLC10A2: TNF reporter robust z-score = -1.28
SLC10A2: TNF reporter robust z-score = -1.52 (active)
SLC10A2: TNF reporter robust z-score = -0.72
CDC42SE2 (CDC42 small effector 2): TNF reporter robust z-score = -0.91
CDC42SE2 (CDC42 small effector 2): TNF reporter robust z-score = -0.59
CDC42SE2 (CDC42 small effector 2): TNF reporter robust z-score = -0.41
CDC42SE2 (CDC42 small effector 2): TNF reporter robust z-score = -0.77
CELF1 (CUGBP Elav-like family member 1): TNF reporter robust z-score = 0.68
CELF1 (CUGBP Elav-like family member 1): TNF reporter robust z-score = 2.06
CELF1 (CUGBP Elav-like family member 1): TNF reporter robust z-score = 0.52
CELF1 (CUGBP Elav-like family member 1): TNF reporter robust z-score = 1.22
RNF4 (ring finger protein 4): TNF reporter robust z-score = -0.07
RNF4 (ring finger protein 4): TNF reporter robust z-score = 0.64
RNF4 (ring finger protein 4): TNF reporter robust z-score = 0.25
RNF4 (ring finger protein 4): TNF reporter robust z-score = 0.35
